The results in this text go back to PubChem BioAssay AID248 (DTP/NCI, 2004).

The list does not hold the whole screen: it gathers tests that were run many times, whatever their T/C, doses with no T/C, and many T/C values between a quarter and a half above the control. Further doses and runs are listed elsewhere. T/C: endpoint of the treated group in % of that of the vehicle group. Some doses have a count of surviving animals in place of a T/C: the source holds a T/C of zero for them, seemingly a mark for toxic or unscored doses. Some doses without a T/C left all or most animals alive at the check, yet need not have been tolerated: survival well below the control is almost never listed, so the zero probably covers shortened survival too. Survivors were counted at the toxicity check, usually on the fifth day, unless a day is given; later deaths do not show. Schedule codes are those of the source, taken here to give the interval after Q, in days (D) or hours (H), and the number of doses after X. Some schedules carry Z or #; the key to these is not given. Some doses were run more than once; the values are given in rising order. For survival time, the PubChem record calls one and a half times the control and up active, and a quarter to a half above the control has no call in these data; cut-offs in other NCI protocols can differ.

The test system of the assay is L1210 leukemia ip in BDF1 mice, survival T/C. In words: NCI In Vivo Anticancer Drug Screen. Data for tumor model L1210 Leukemia (intraperitoneal) in B6D2F1 (BDF1) mice. The following applies: T/C endpoint: mean survival time, higher T/C = longer survival.
[1] abbreviates: dose: 25.0 mg/kg/injection, schedule: Q01DX009 (ip), vehicle: saline.
[2] abbreviates: dose: 50.0 mg/kg/injection, schedule: Q01DX009 (ip), vehicle: saline.
Where [3] appears, read: dose: 100.0 mg/kg/injection, schedule: Q01DX009 (ip), vehicle: saline.
Where [4] appears, read: dose: 200.0 mg/kg/injection, schedule: Q01DX009 (ip), vehicle: saline.
The mark [5] stands for this setting: dose: 400.0 mg/kg/injection, schedule: Q01DX009 (ip), vehicle: saline.
The mark [6] stands for this setting: dose: 200.0 mg/kg/injection, schedule: Q04DX002 (ip), vehicle: saline with Tween-80.
The mark [7] stands for this setting: dose: 400.0 mg/kg/injection, schedule: Q04DX002 (ip), vehicle: saline with Tween-80.
Setting [8] is: dose: 400.0 mg/kg/injection, schedule: Q01DX001 (ip), vehicle: saline.
[9] abbreviates: dose: 400.0 mg/kg/injection, schedule: Q04DX003 (ip), vehicle: saline with Tween-80.
Setting [10] is: dose: 200.0 mg/kg/injection, schedule: Q04DX003 (ip), vehicle: saline.
Where [11] appears, read: dose: 400.0 mg/kg/injection, schedule: Q04DX003 (ip), vehicle: saline.
Where [12] appears, read: dose: 400.0 mg/kg/injection, schedule: Q01DX009 (ip), vehicle: Klucel (hydroxypropylcellulose) (HPC).
[13] abbreviates: dose: 100.0 mg/kg/injection, schedule: Q04DX003 (ip), vehicle: saline with Tween-80.
[14] abbreviates: dose: 200.0 mg/kg/injection, schedule: Q04DX003 (ip), vehicle: saline with Tween-80.

Take `CN(C)c1ccc(/C(=N\O)c2cc[n+](C)cc2)cc1`: the survivor count is 6 of 6 (dose: 12.5 mg/kg/injection, schedule: Q01DX009 (ip), vehicle: saline); 0 of 6 under setting [1]; 0 of 6 under setting [2]; 0 of 6 under setting [3]; 0 of 6 under setting [4]; 0 of 6 under setting [5].
For `CC[CH2][Sn]([CH2]CC)([CH2]CC)[CH2]Cc1ccncc1`, the survivor count is, setting by setting: (dose: 100.0 mg/kg/injection, schedule: Q04DX002 (ip), vehicle: saline with Tween-80) 0 of 3; under setting [6], 0 of 3; under setting [7], 0 of 3.
Take `N#[N+]c1ccccc1-c1nc(N)nc(N)n1`: the survivor count (dose: 200.0 mg/kg/injection, schedule: Q01DX001 (ip), vehicle: saline) is given as 0 of 6 and the survivor count under setting [8] is listed as 0 of 6.
With `O=C(Nc1ccc2cc(S(=O)(=O)O)ccc2c1)c1ccc(N=Nc2c(S(=O)(=O)O)cc3cc(S(=O)(=O)O)cc(NC(=O)c4ccccc4)c3c2O)cc1`, the survivor count runs as follows: (dose: 225.0 mg/kg/injection, schedule: Q01DX009 (ip), vehicle: other) 0 of 6; under setting [9], 5 of 6.
As to `CC(C)C(=O)Nc1cccnc1`, the survivor count reads like this: (dose: 75.0 mg/kg/injection, schedule: Q01DX001 (ip), vehicle: saline) 3 of 6; (dose: 150.0 mg/kg/injection, schedule: Q01DX001 (ip), vehicle: saline) 0 of 6; (dose: 300.0 mg/kg/injection, schedule: Q01DX001 (ip), vehicle: saline) 0 of 6.
Regarding `c1ccc2c(c1)C1c3cccc[n+]3C2C2C1CC1C3c4ccccc4C(C12)[n+]1ccccc13` (stereo not drawn), the survivor count is, setting by setting: under setting [1], 1 of 6 and 2 of 6; under setting [2], 0 of 6; under setting [3], 0 of 6; (dose: 100.0 mg/kg/injection, schedule: Q04DX003 (ip), vehicle: saline) 0 of 6; under setting [4], 0 of 6; under setting [10], 0 of 6. The survivor count runs as follows: under setting [5], 0 of 6; under setting [11], 0 of 6.
Regarding `C=C1C(=O)OC2C1C(OC(=O)/C(=C/C)COC(C)=O)CC1(CO1)C1C(OC(=O)/C(=C/C)CO)C3OC3(C)C21` (stereo not drawn), the survivor count reads like this: (dose: 12.5 mg/kg/injection, schedule: Q01DX009 (ip), vehicle: alcohol) 1 of 6; (dose: 25.0 mg/kg/injection, schedule: Q01DX009 (ip), vehicle: alcohol) 2 of 6; (dose: 50.0 mg/kg/injection, schedule: Q01DX009 (ip), vehicle: alcohol) 0 of 6; (dose: 100.0 mg/kg/injection, schedule: Q01DX009 (ip), vehicle: alcohol) 0 of 6; (dose: 200.0 mg/kg/injection, schedule: Q01DX009 (ip), vehicle: alcohol) 0 of 6; (dose: 400.0 mg/kg/injection, schedule: Q01DX009 (ip), vehicle: alcohol) 0 of 6.
Turning to `CC1C(N2CCCCC2)CS1(=O)=O` (stereo not drawn), the survivor count is listed as 2 of 3 (dose: 200.0 mg/kg/injection, schedule: Q04DX002 (ip), vehicle: saline) and 0 of 3 (dose: 400.0 mg/kg/injection, schedule: Q04DX002 (ip), vehicle: saline).
On to `CCCCC(/C=C1/CCCCC1=O)CC` (stereo not drawn), for which the survivor count under setting [12] is 6 of 6.
For the molecule `CCCCSP(=O)(N1CCCCC1)N1CCCCC1`, the survivor count by setting is: under setting [6], 1 of 3; under setting [7], 0 of 3.
For `Nc1nc(SCc2ccccc2)cc(C(=O)O)n1`, the survivor count runs as follows: (dose: 100.0 mg/kg/injection, schedule: Q01DX Z (ip), vehicle: methylcellulose (MC)) 6 of 6; (dose: 200.0 mg/kg/injection, schedule: Q01DX Z (ip), vehicle: methylcellulose (MC)) 0 of 6.
For the molecule `CCC/C=C(C)/C=N\NC(=O)c1ccc[n+](C)c1`, the survivor count (dose: 200.0 mg/kg/injection, schedule: Q01DX009 (ip), vehicle: saline with Tween-80) is listed as 2 of 3.
On to `O=C1N(c2cc([N+](=O)[O-])ccc2F)C(=O)C(F)(F)C1(F)F`, for which the survivor count (dose: 400.0 mg/kg/injection, schedule: Q01DX001 (ip), vehicle: saline with Tween-80) is listed as 3 of 6.
Take `COCNC(=S)N/N=C/c1ccccn1`: the T/C (dose: 25.0 mg/kg/injection, schedule: Q01DX009 (ip), vehicle: saline with Tween-80) is 127 % of control.
In the case of `NN(c1ccccc1)c1ccc2ccccc2c1`, the survivor count under setting [12] was 0 of 6.
`c1cncc(C2=NCCN2)c1`: the survivor count is, setting by setting: under setting [3], 3 of 6; under setting [4], 0 of 6; under setting [5], 0 of 6.
As to `CCCCCCCCCCCC(=O)NN`, the survivor count was 1 of 6 (dose: 150.0 mg/kg/injection, schedule: Q01DX009 (ip), vehicle: carboxymethylcellulose (CMC)); 0 of 6 (dose: 300.0 mg/kg/injection, schedule: Q01DX009 (ip), vehicle: carboxymethylcellulose (CMC)); 0 of 6 (dose: 600.0 mg/kg/injection, schedule: Q01DX009 (ip), vehicle: carboxymethylcellulose (CMC)).
Regarding `N#CN=C([S-])[S-].N#CN=C([S-])[S-].[Cu]`, the survivor count runs as follows: under setting [13], 0 of 6; under setting [14], 0 of 6; under setting [9], 0 of 6.
For `O=NN1CCCCCC1C(=O)O` (stereo not drawn), the survivor count under setting [8] was 2 of 4.
As for `CC1=C2CCCC(=O)C2(C)CCC1=O` (stereo not drawn), the survivor count (dose: 400.0 mg/kg/injection, schedule: Q04DX002 (ip), vehicle: Klucel (hydroxypropylcellulose) (HPC)) is 2 of 3.
Take `CCCCOP(=O)(CCCC)OCCCC`: the survivor count under setting [13] was 6 of 6 and the survivor count under setting [14] is on record as 0 of 6.
For `Cc1cc(C)c(S(=O)(=O)O)cc1C`, the survivor count is reported as 6 of 6 under setting [10] and 0 of 6 under setting [11].
Consider `CC[N+](CC)(CC)CCCCCC[N+](CC)(CC)CC`, for which the survivor count is reported as 0 of 6 (dose: 25.0 mg/kg/injection, schedule: Q01DX009 (ip), vehicle: water); 0 of 6 (dose: 25.0 mg/kg/injection, schedule: Q04DX003 (ip), vehicle: saline); 0 of 6 (dose: 50.0 mg/kg/injection, schedule: Q01DX009 (ip), vehicle: water); 0 of 6 (dose: 100.0 mg/kg/injection, schedule: Q04DX003 (ip), vehicle: water); 0 of 6 (dose: 200.0 mg/kg/injection, schedule: Q04DX003 (ip), vehicle: water); 0 of 6 (dose: 400.0 mg/kg/injection, schedule: Q04DX003 (ip), vehicle: water).
Regarding `CCCOP(=O)(OCCC)C(OC(=O)C(C)(C)C)=C(C)C`, the survivor count under setting [9] is recorded as 0 of 6.
Regarding `OC(c1cccc2ccccc12)c1c2ccccc2cc2ccccc12` (stereo not drawn), the T/C under setting [4] was 126 % of control.
As for `CCCCCCCCCCC(=O)N(CCC)CCC`, the survivor count (dose: 400.0 mg/kg/injection, schedule: Q01DX009 (ip), vehicle: carboxymethylcellulose (CMC)) is listed as 3 of 3.
For `CCCCN(Cl)CCCC`, the survivor count is, setting by setting: (dose: 200.0 mg/kg/injection, schedule: Q04DX002 (ip), vehicle: saline + alcohol) 0 of 3; (dose: 400.0 mg/kg/injection, schedule: Q04DX002 (ip), vehicle: saline + alcohol) 0 of 3.
Regarding `CCCCCCCNc1ccc(S(=O)(=O)c2ccc(NCCCCCCC)c([N+](=O)[O-])c2)cc1[N+](=O)[O-]`, the survivor count (dose: 200.0 mg/kg/injection, schedule: Q01DX005 (ip), vehicle: DMSO) is 3 of 3.
